Earlier results, collected in article PMC8074792, “An ω-3, but Not an ω-6 Polyunsaturated Fatty Acid Decreases Membrane Dipole Potential and Stimulates Endo-Lysosomal Escape of Penetratin” (Frontiers in Cell and Developmental Biology, 2021).

Parameters: method as in Batta et al., 2020
Settings: lowering DP with the agent; ref Batta et al., 2020; cited from earlier work
Description: One of the most widely studied cellular functions influenced by the magnitude of DP is the cellular binding and uptake of certain substances including drugs ([Asawakarn et al., 2001]), β-amyloid ([Hertel et al., 1997]) and other peptides ([Cladera and O’Shea, 1998]; [Zhan and Lazaridis, 2012]). […] Although cell-penetrating peptides are promising therapeutic tools for de ...

SMILES: CC(C)c1c(C(=O)Nc2ccccc2)c(-c2ccccc2)c(-c2ccc(F)cc2)n1CC[C@@H](O)C[C@@H](O)CC(=O)O [atorvastatin]
- cellular uptake and endo-lysosomal escape of penetratin: increased
